Screen size: about 320,000 compounds; about 22,000 (6.9%) were called active. Inconclusive results, whose numbers are uncertain, are shown with a selection of clear calls. The call rests on the fitted dose curve; in most records, active means well fitted inhibition curve with a large enough effect; inconclusive means small, poorly fitted or top-dose-only effect, or another doubt; inactive means no such curve, though single readings can be large or run the other way. Potencies beside an inconclusive call are fits to weak or partial responses and may not hold up.
Assay: Primary qHTS for delayed death inhibitors of the malarial parasite plastid, 96 hour incubation
Details: P. falciparum luciferase reporter growth; series mostly up to 28.7 µM; activity change, negative = inhibition: at the top concentration
Procedure, shortened: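 Plates of compound plus infected erythrocytes (2% hematocrit, 0.05% parasitemia final) incubate 96 hours, 37 C, 5% CO2. Detection reagent added; reduced luminescence from the parasites' luciferase reporter flags inhibition.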
On the % scale 0 is the no-effect control and ±100 the full control effect; potency means the concentration at half of the fitted maximal effect.

SMILES	Potency	activity change, negative = inhibition
Cc1ccc(O)c(NC(=O)CSc2n[nH]c(-c3ccccc3)n2)c1	inconclusive: 18.5 µM [inhibitor, single point]	–
Cc1nonc1OCCNc1ccc([N+](=O)[O-])c2cccnc12	inconclusive: 18.5 µM [inhibitor, single point]	–
Clc1ccccc1Cc1noc(CN2CCCCC2CCc2ccccn2)n1 (stereo not given)	–	inactive: 11.5%
Cc1cc(C(=O)COC(=O)c2ccc(Cl)c(S(N)(=O)=O)c2)c(C)n1CC1CCCO1 (stereo not given)	–	inactive: 1.74%
COCC(C)NC(=O)CSc1ncnc2sc(-c3ccccc3)cc12 (stereo not given)	–	inactive: -11.5%
Cc1cc(C=O)c(C)n1-c1ccc(N2CCOCC2)cc1	inconclusive: 18.5 µM [inhibitor, single point]	–
Cc1ccccc1CN1CCN(C(C)C(=O)NNC(=O)c2ccc(F)cc2)CC1 (stereo not given)	inconclusive: 16.5 µM [inhibitor, partial curve, poor fit]	–
O=C(C1CCCN(Cc2cccs2)C1)N1CCCCCC1 (stereo not given)	–	inactive: 18.2%
Cc1ccc(C(=O)Cn2c(N3CCOCC3)nc3c2c(=O)n(C)c(=O)n3C)cc1	inconclusive: 11.7 µM [inhibitor, single point]	–
Cc1ccc(-n2c(C)cc(/C=N/NC(=O)c3ccncc3)c2C)cc1	inconclusive: 5.22 µM [inhibitor, partial curve, poor fit]	–
Cc1nnc(NC(=O)c2sc3ccccc3c2Cl)s1	–	inactive: -26.3%
COc1ccc2c(c1)cc1c(=O)n(CC(=O)NCCCN3CCOCC3)nc(C)n12	–	inactive: 70.1%
COc1cc(C(=O)N2CCC(O)(c3ccccc3)CC2)cc(OC)c1OC	inconclusive: 9.28 µM [inhibitor, partial curve, poor fit]	–
CC(NC(=O)c1cc(COc2ccc3ncccc3c2)on1)c1ccc(F)cc1 (stereo not given)	–	inactive: -1.9%
COc1cc2sc(NC(=O)c3ccco3)nc2cc1Cl	–	inactive: 26.2%
CC12CCC(C(=O)N/N=C/c3ccc(O)cc3O)(OC1=O)C2(C)C (stereo not given)	inconclusive: 8.28 µM [inhibitor, partial curve, poor fit]	–
CC(OC(=O)C1CCN(S(=O)(=O)c2ccc(C(C)(C)C)cc2)CC1)C(=O)N1CCOCC1 (stereo not given)	inconclusive: 10.4 µM [inhibitor, partial curve, poor fit]	–
CCOC(=O)c1csc(NC(=O)c2cc(=O)c3ccccc3o2)n1	active: 0.0738 µM	–
COc1cc(/C=C2/C(=N)N3C(=NC2=O)SN=C3S(=O)(=O)C(C)C)ccc1OC(=O)c1ccco1	inconclusive: 18.5 µM [inhibitor, single point]	–
CCC(Oc1ccccc1)C(=O)Nc1ccc(S(=O)(=O)Nc2cnc3ccccc3n2)cc1 (stereo not given)	inconclusive: 11.7 µM [inhibitor, single point]	–
CCOC(=O)c1ccc(NC(=O)CSc2nnc(C3CCCCC3)n2C)cc1	active: 8.28 µM	–
COc1ccc(/C(=N/O)C(C)(C)NO)cc1	active: 8.28 µM	–
Cc1cc(NC(=O)COc2ccc3ccccc3c2)no1	inconclusive: 10.4 µM [inhibitor, partial curve]	–

In the list so far, 13 have a carbonyl joined to an NH by a bond outside any ring:
SMILES	Potency	activity change, negative = inhibition
Cc1ccc(O)c(NC(=O)CSc2n[nH]c(-c3ccccc3)n2)c1	inconclusive: 18.5 µM [inhibitor, single point]	–
COCC(C)NC(=O)CSc1ncnc2sc(-c3ccccc3)cc12 (stereo not given)	–	inactive: -11.5%
Cc1ccccc1CN1CCN(C(C)C(=O)NNC(=O)c2ccc(F)cc2)CC1 (stereo not given)	inconclusive: 16.5 µM [inhibitor, partial curve, poor fit]	–
Cc1ccc(-n2c(C)cc(/C=N/NC(=O)c3ccncc3)c2C)cc1	inconclusive: 5.22 µM [inhibitor, partial curve, poor fit]	–
Cc1nnc(NC(=O)c2sc3ccccc3c2Cl)s1	–	inactive: -26.3%
COc1ccc2c(c1)cc1c(=O)n(CC(=O)NCCCN3CCOCC3)nc(C)n12	–	inactive: 70.1%
CC(NC(=O)c1cc(COc2ccc3ncccc3c2)on1)c1ccc(F)cc1 (stereo not given)	–	inactive: -1.9%
COc1cc2sc(NC(=O)c3ccco3)nc2cc1Cl	–	inactive: 26.2%
CC12CCC(C(=O)N/N=C/c3ccc(O)cc3O)(OC1=O)C2(C)C (stereo not given)	inconclusive: 8.28 µM [inhibitor, partial curve, poor fit]	–
CCOC(=O)c1csc(NC(=O)c2cc(=O)c3ccccc3o2)n1	active: 0.0738 µM	–
CCC(Oc1ccccc1)C(=O)Nc1ccc(S(=O)(=O)Nc2cnc3ccccc3n2)cc1 (stereo not given)	inconclusive: 11.7 µM [inhibitor, single point]	–
CCOC(=O)c1ccc(NC(=O)CSc2nnc(C3CCCCC3)n2C)cc1	active: 8.28 µM	–
Cc1cc(NC(=O)COc2ccc3ccccc3c2)no1	inconclusive: 10.4 µM [inhibitor, partial curve]	–

Continued.

SMILES	Potency	activity change, negative = inhibition
CC(C)c1ccc(NC(=O)Cn2nnc(C(=O)NCc3ccco3)c2N)cc1	active: 11.7 µM	–
Cc1cccc2[nH]c(SCC(=O)N3CCOCC3)nc12	inconclusive: 2.08 µM [inhibitor, partial curve, poor fit]	–
CN1c2ccccc2C2(C)CCCC3=Cc4cccc([N+](=O)[O-])c4OC312 (stereo not given)	inconclusive: 18.5 µM [inhibitor, partial curve, poor fit]	–
COc1cccc(CNC(=O)CN(C)S(=O)(=O)c2ccc3c(c2)n(C)c(=O)c(=O)n3C)c1	inconclusive: 18.5 µM [inhibitor, single point]	–
Cc1ccc(N=C2NC(=O)/C(=C/C=C/c3ccco3)S2)cc1	inconclusive: 10.4 µM [inhibitor, partial curve, poor fit]	–
O=C(NCCCN1CCOCC1)C(=O)NCC1OCCN1S(=O)(=O)c1cc(F)ccc1F (stereo not given)	inconclusive: 3.7 µM [inhibitor, single point]	–
CC(=O)Nc1ncnc2c1c(-c1ccc(Cl)cc1)nn2C(C)(C)C	inconclusive: 3.7 µM [inhibitor, full curve]	–
CS(=O)(=O)Cc1cc(Sc2ccccc2)nc(-c2ccncc2)n1	–	inactive: -26.7%
COc1ccc2cc(C(=O)N/N=C/c3sc4ccccc4c3O)ccc2c1	–	inactive: 40.4%
CCN(CC)CCC(C)OC(c1ccccc1)c1ccccc1 (stereo not given)	–	inactive: -82.8%
Cc1ccc(S(=O)(=O)NCC(=O)NCCc2c[nH]c3ccccc23)cc1C	inconclusive: 7.38 µM [inhibitor, partial curve, poor fit]	–
CCC(=O)N1N=C2C3CCN(CC3)C2C1c1ccccc1 (stereo not given)	–	inactive: -2.34%
O=C(N/N=C/c1ccc(Br)s1)c1cccc([N+](=O)[O-])c1	active: 4.15 µM	–
CC(C)N(C(=O)CC1ON(C)C(=O)N1c1ccc(Cl)cc1)C(C)C (stereo not given)	inconclusive: 8.28 µM [inhibitor, partial curve, poor fit]	–
Cc1cccc(NC(=O)NC2CCCCCCC2)c1	–	inactive: 42.9%
O=C(/C=C/c1c(F)cccc1Cl)Nc1ncccn1	inconclusive: 18.5 µM [inhibitor, single point]	–
Cc1cc(C)cc(NC(=O)c2cc(S(=O)(=O)N3CCCC3)cn2C)c1	inconclusive: 2.33 µM [inhibitor, partial curve, poor fit]	–
COCCNC(=O)C(c1ccco1)N(C(=O)Cn1nnc2ccccc21)c1cccc(C)c1C (stereo not given)	–	inactive: 45.1%
O=NN(CCCl)C(=O)NCCCl	inactive	–
Clc1nc(NCc2cccnc2)nc(N2CCOCC2)n1	inconclusive: 11.7 µM [inhibitor, partial curve, poor fit]	–
CC(C)(C)NC(=O)c1ccc(COc2ccc(Cl)cc2Cl)o1	inconclusive: 11.7 µM [inhibitor, partial curve, poor fit]	–
COc1ccc(C2C(C(=O)NCC3CCCO3)CCC(=O)N2c2ccc3c(c2)OCO3)cc1 (stereo not given)	inconclusive: 4.15 µM [inhibitor, single point]	–
O=C(O)c1ccnc2c(O)cccc12	inconclusive: 11.7 µM [inhibitor, single point]	–
O=C(NCC(c1cccs1)N1CCOCC1)c1cn(-c2ccccc2)nc1-c1ccc(F)cc1 (stereo not given)	inconclusive: 20.8 µM [inhibitor, single point]	–

SMILES	Potency	activity change, negative = inhibition
COc1cc(OC)cc(C(=O)N2c3ccc(F)cc3CCC2C)c1 (stereo not given)	inconclusive: 3.29 µM [inhibitor, full curve, poor fit]	–
CCN(CCn1cccn1)C(=O)C1CCC(=O)N(CCN2CCOCC2)C1 (stereo not given)	–	inactive: 0.381%
COc1cc(OC)c(C2=NOC(C(=O)NCCc3ccccc3)C2)cc1Cl (stereo not given)	inconclusive: 10.4 µM [inhibitor, single point]	–
CCOC(=O)N1CCN(C(=O)CNC(=O)Cn2cnc3ccccc3c2=O)CC1	inconclusive: 9.28 µM [inhibitor, partial curve, poor fit]	–
CC(C)COP(=O)(c1ccc(N(C)C)cc1)C(Nc1ccccc1)c1ccccc1 (stereo not given)	inconclusive: 18.5 µM [inhibitor, partial curve, poor fit]	–
CC(=O)c1cccc(-n2c(CCC(=O)O)ccc2-c2cccs2)c1	inconclusive: 20.8 µM [inhibitor, partial curve, poor fit]	–
Cc1cc(C)c2nc(SCc3ccc([N+](=O)[O-])cc3)nc(C)c2c1	active: 13.1 µM	–
COc1ccc(C2NC(Cc3ccccc3)(C(=O)O)C3C(=O)N(c4ccccc4OC)C(=O)C23)cc1 (stereo not given)	–	inactive: 10.6%
COc1ccc2c(c1)oc(=O)c1c3ccccc3[nH]c21	inconclusive: 0.0657 µM [inhibitor, full curve, poor fit]	–
CCOC(=O)c1[nH]c2ccc(OCC)cc2c1NC(=O)CN1CCN(c2ccccn2)CC1	active: 4.65 µM	–
CCOC(=O)N1CCN(C(=O)CCn2nc(-c3ccc(Cl)cc3)ccc2=O)CC1	inconclusive: 3.7 µM [inhibitor, single point]	–
Cc1nc(CC(=O)c2c(C)cc(O)cc2O)cs1	–	inactive: 1.21%
COc1ccc(NC(=S)N2CCC(N(C)CC3CCCO3)CC2)cc1Cl (stereo not given)	active: 6.57 µM	–
Cc1ccc(NC(=O)COC(=O)[C@@H]2CCCN2C(=O)c2cccs2)cc1S(=O)(=O)N(C)C	–	inactive: 21.6%
COc1ccccc1-c1nc(SCC(=O)N(C)c2ccccc2)c2c(=O)n(C)c(=O)n(C)c2n1	inconclusive: 18.5 µM [inhibitor, single point]	–
CSc1ccc(/C=N/n2c(COc3ccccc3)n[nH]c2=S)cc1	–	inactive: 13.9%
CCOC(=O)C1(CCOC)CCN(C(=O)Cc2ccc3ccccc3c2)CC1	inconclusive: 18.5 µM [inhibitor, single point]	–
O=C(COC(=O)C1CCC1)Nc1cc(S(=O)(=O)N2CCCCC2)ccc1Cl	inconclusive: 0.0928 µM [inhibitor, full curve, poor fit]	–
COc1ccc(Cl)cc1N1C(=O)C2CCCN2C1c1ccc(F)cc1 (stereo not given)	inconclusive: 10.4 µM [inhibitor, single point]	–
Oc1ccc(N=Nc2nc(-c3ccccc3)c(-c3ccccc3)[nH]2)cc1	inconclusive: 10.4 µM [inhibitor, partial curve]	–
CN(C)N1C(N)=C(C#N)C(c2ccsc2)C2=C1CCCC2=O (stereo not given)	active: 9.28 µM	–
CCc1nnc(NC(=O)Cc2cc(OC)c(OC)c(OC)c2)s1	inconclusive: 4.65 µM [inhibitor, partial curve, poor fit]	–

A different layout for some results above:
SMILES,Potency,"activity change, negative = inhibition"
CCN(CCn1cccn1)C(=O)C1CCC(=O)N(CCN2CCOCC2)C1 (stereo not given),–,inactive: 0.381%
Cc1cc(C)c2nc(SCc3ccc([N+](=O)[O-])cc3)nc(C)c2c1,active: 13.1 µM,–

Source: PubChem BioAssay AID504834 (National Center for Advancing Translational Sciences (NCATS), 2011)
